PubChem BioAssay AID624291 (National Center for Advancing Translational Sciences (NCATS), 2012)
Out of some 350,000 compounds screened, about 220 (0.063%) were called active. Inconclusive results, whose numbers are uncertain, are shown with a selection of clear calls. The call rests on the fitted dose curve; in most records, active means well fitted activation curve with a large enough effect; inconclusive means small, poorly fitted or top-dose-only effect; inactive means no such curve, though single readings can be large or run the other way. Where the call is inconclusive, the potency comes from a doubtful curve fit.

assay: qHTS for Activators of Integrin-Mediated Alleviation for Muscular Dystrophy; conditions: alpha7betagal myoblasts, beta-gal FDG fluorescence, 48 h; activation: at 38.3 µM (top of the series); further: nearly all actives have a fitted effect of over 60% in size;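 on activation: 100% = response of the positive control SU9516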
Procedure, shortened: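 alpha7betagal+/- myoblasts (passage 13, 250/well) treated 48 h at 37C with compounds at 1:260 dilution of DMSO stock. Lysed, then beta-galactosidase activity read as FDG fluorescence (ex 480/em 540) after 30 min, with pre-read for autofluorescence.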
Potency means the concentration at half of the fitted maximal effect.

Row | SMILES | Potency | activation
1 | CNC(=O)[C@@H]1C[C@H]1[C@@H](NC(=O)OCc1ccccc1)c1ccccc1 | inconclusive: 1.26 µM [activator, partial curve, poor fit] | 
2 | O=c1[nH]c2ccccc2c2cn(-c3ccccc3)nc12 | inconclusive: 2.24 µM [activator, partial curve, poor fit] | 
3 | Cc1ccc2cccc(OCC(=O)Nc3ccc(N4CCOCC4)cc3)c2n1 | inconclusive: 5.01 µM [activator, single point] | 
4 | O=C(O)C12CC3CC(C1)CC(n1ncc(NCc4ccccc4)c(Cl)c1=O)(C3)C2 | inconclusive: 5.01 µM [activator, single point] | 
5 | Cc1ccc(S(=O)(=O)N(C)CC(=O)Nc2nc3ccccc3s2)cc1 | inactive | 
6 | Cc1ccccc1NC(=O)c1ccc2ccccc2c1 | inconclusive: 3.55 µM [activator, single point] | 
7 | Cc1cccc(N2CCN(C(=O)C3(S(=O)(=O)c4ccc(Cl)cc4)CC3)CC2)c1C | inconclusive: 22.4 µM [activator, single point] | 
8 | COc1ccc(N2CCN(C(=O)CNS(=O)(=O)c3ccc(Br)s3)CC2)cc1 | inconclusive: 8.91 µM [activator, partial curve, poor fit] | 
9 | CC(C)C(C)NC(=O)COc1ccc(S(=O)(=O)N2CCOCC2)cc1Cl (stereo not given) | inactive | 
10 | Cc1cnc(NC(=O)c2ccccn2)s1 |  | inconclusive: -21% [activator]
11 | O=C(Nc1ccc(Cl)cc1)NC1CCCCC1 | inactive | 
12 | COc1cc(OC)cc(C(=O)OCC(=O)Nc2sccc2C(N)=O)c1 | inconclusive: 20 µM [activator, single point] | 
13 | O=C(N/N=C/c1ccccn1)c1[nH]c2ccc([N+](=O)[O-])cc2c1-c1ccccc1 | inactive | 
14 | O=C1c2ccccc2C(=O)N1CC1CCCO1 (stereo not given) | inconclusive: 11.2 µM [activator, partial curve, poor fit] | 
15 | S=C(Nc1ccc2c(c1)OCCO2)Nc1ccccc1Cl | inactive | 
16 | Cc1cc(NC(=O)c2ccc(Cn3nc(C)c(Br)c3C)o2)no1 | inconclusive: 3.16 µM [activator, full curve, poor fit] | 
17 | O=C(CCc1ccc(S(=O)(=O)NC2CCCCC2)cc1)Nc1ccccc1 | inconclusive: 2.82 µM [activator, partial curve, poor fit] | 
18 | CC(=O)c1sc(N/N=C\c2ccccc2O)nc1C | inconclusive: 3.98 µM [activator, partial curve, poor fit] | 
19 | O=c1[nH]c(-c2ccc(O)cc2)nc2scc(-c3cccs3)c12 | inconclusive: 3.55 µM [activator, full curve, poor fit] | 
20 | Cc1cc(C)n(-c2nc3ccccc3s2)n1 | inconclusive: 3.98 µM [activator, single point] | 
21 | O=C(COc1ccc(Oc2ccccc2)cc1)NCc1cn2ccccc2n1 | inactive | 
22 | CCN(CC)S(=O)(=O)c1ccc(C)c(NC(=O)c2cc(C)oc2C)c1 | inconclusive: 5.01 µM [activator, single point] | 
23 | COc1cc(/C=C(\C#N)C(=O)N2CCOCC2)ccc1OCc1ccccc1 | inactive | 

Gathered by group, the entries above containing a furan ring, fused or not
Row | SMILES | Potency | activation
16 | Cc1cc(NC(=O)c2ccc(Cn3nc(C)c(Br)c3C)o2)no1 | inconclusive: 3.16 µM [activator, full curve, poor fit] | 
22 | CCN(CC)S(=O)(=O)c1ccc(C)c(NC(=O)c2cc(C)oc2C)c1 | inconclusive: 5.01 µM [activator, single point] | 

(list continues)

Row | SMILES | Potency | activation
24 | Cc1ccc(Cc2nnc(SCC(=O)Nc3ccccc3Cl)[nH]c2=O)cc1 | inconclusive: 20 µM [activator, single point] | 
25 | COc1cccc(NS(=O)(=O)c2ccc(-n3cccn3)cc2)c1 | inconclusive: 2.51 µM [activator, single point] | 
26 | CC(=O)NCCc1nc2cc(NS(=O)(=O)c3ccccc3)ccc2n1C | inactive | 
27 | CC(C)C(=O)NC(=S)NCC(=O)c1ccccc1 | inactive | 
28 | CN(CC(=O)N1CCCCC1)S(=O)(=O)c1ccc(Cl)cc1 | inconclusive: 10 µM [activator, partial curve] | 
29 | Cc1cc(C)c(C(=O)NC2CC(C)(C)Cc3c2cnn3-c2ccccc2)o1 (stereo not given) | inactive | 
30 | CN(C)C=Nc1c(C(=O)c2ccccc2)sc2nccc(N(C)C)c12 | inconclusive: 20 µM [activator, partial curve, poor fit] | 
31 | CC(OC(=O)C1CCCC1)C(=O)Nc1ncc(Cl)cc1Cl (stereo not given) | inconclusive: 2.24 µM [activator, partial curve, poor fit] | 
32 | CSc1ncnc2c1ncn2CCCN(C)Cc1ccco1 | inactive | 
33 | CCCCN(CC)S(=O)(=O)c1ccc(C(=O)N(CCCN(C)C)c2nc3cc(C)cc(C)c3s2)cc1 | inactive | 
34 | CCOC(CCn1c(SCc2cccc([N+](=O)[O-])c2)nc2ccccc2c1=O)OCC | inconclusive: 31.6 µM [activator, partial curve, poor fit] | 
35 | COc1ccc(OC)c2sc(N(CCN(C)C)C(=O)c3cc(Cl)sc3Cl)nc12 | inconclusive: 2.24 µM [activator, partial curve, poor fit] | 
36 | CC1=C(C(=O)Nc2ccccc2C(=O)NCCCN2CCN(C)CC2)SCCO1 | inconclusive: 0.501 µM [activator, full curve, poor fit] | 
37 | N/C(=N\OC(=O)c1cccs1)c1ccc(Cl)cc1 | inconclusive: 0.562 µM [activator, full curve, poor fit] | 
38 | CCCOc1ccc2c(c1)C(=NN=C(N)N)c1cc(OCCC)ccc1-2 | inactive | 
39 | Clc1cccc(CN2CCN(Cc3ccco3)CC2)c1 | inconclusive: 31.6 µM [activator, single point] | 
40 | Fc1ccc(-n2c(=S)[nH]c3cccnc32)cc1 | inactive | 
41 | CCOc1c(O)ccc(/C=C2\SC(=S)NC2=O)c1[N+](=O)[O-] | inconclusive: 5.01 µM [activator, single point] | 
42 | Nc1nc(-c2ccccc2)[nH]c(=O)c1N | inactive | 
43 | COC(=O)Nc1ccc(S(=O)(=O)Nc2ccc(O)cc2)cc1 | inconclusive: 2.82 µM [activator, partial curve, poor fit] | 
44 | Cc1cccc(OCc2n[nH]c(=S)n2-c2ccccc2)c1 | inconclusive: 5.01 µM [activator, single point] | 
45 | COc1cccc(C(=O)N2CCN(C(=O)C3COc4ccccc4O3)CC2)c1 (stereo not given) | inconclusive: 28.2 µM [activator, single point] | 

Compounds 38 to 39, reprinted for reference:
Row | SMILES | Potency | activation
38 | CCCOc1ccc2c(c1)C(=NN=C(N)N)c1cc(OCCC)ccc1-2 | inactive | 
39 | Clc1cccc(CN2CCN(Cc3ccco3)CC2)c1 | inconclusive: 31.6 µM [activator, single point] | 
